Reference: PubChem BioAssay AID1259425 (University of Nebraska Medical Center, 2018)
Here is an unselected part of about 14,000 reagents. Some reagents were tested in more than one well and are listed for each. Not given: the time to read-out.

- Aim: 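Compare each knockdown with KSR1 silencing using changes in marker transcripts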 (primary screen)
- Cells: HCT116 human colon cancer cells
- Reagent: siRNA pool against human genes, 50 nM siRNA
- Detection: 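After 50 nM siRNA pool, branched-DNA assay measures six marker transcripts per well, minus blank, normalised to the geometric mean of two housekeeping transcripts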
- Scale: BNIP3L mRNA: higher = more BNIP3L transcript after knockdown; NDRG1 mRNA: higher = more NDRG1 transcript after knockdown; BNIP3 mRNA: higher = more BNIP3 transcript after knockdown; ALDOC mRNA: higher = more ALDOC transcript after knockdown; ACSL5 mRNA: higher = more ACSL5 transcript after knockdown

Gene | BNIP3L mRNA, set 1 | NDRG1 mRNA, set 1 | BNIP3 mRNA, set 1 | ALDOC mRNA, set 1 | ACSL5 mRNA, set 1
EFNA1 | 0.101 | 0.18 | 0.307 | 0.0315 | 0.202
IKZF2 | 0.107 | 0.22 | 0.309 | 0.00296 | 0.364
TOGARAM1 | 0.13 | 0.338 | 0.27 | 0.0359 | 0.101
HGH1 | 0.154 | 0.306 | 0.342 | 0.00421 | 0.137
GNG2 | 0.145 | 0.325 | 0.337 | 0.0253 | 0.0851
EFEMP1 | 0.117 | 0.182 | 0.254 | 0.0135 | 0.2
FCMR | 0.144 | 0.125 | 0.374 | 0.0247 | 0.0883
PRKACG | 0.0766 | 0.495 | 0.335 | 0.00813 | 0.209
WSCD2 | 0.0907 | 0.383 | 0.349 | 0.0109 | 0.277
TLN1 | 0.225 | 0.267 | 0.233 | 0.0412 | 0.333
RALB | 0.089 | 0.0427 | 0.37 | 0.00513 | 0.0914
ITGAD | 0.167 | 0.549 | 0.468 | 0.0544 | 0.183

Next part (4 carried over from the part before).
Gene | BNIP3L mRNA, set 1 | NDRG1 mRNA, set 1 | BNIP3 mRNA, set 1 | ALDOC mRNA, set 1 | ACSL5 mRNA, set 1
WSCD2 | 0.0907 | 0.383 | 0.349 | 0.0109 | 0.277
TLN1 | 0.225 | 0.267 | 0.233 | 0.0412 | 0.333
RALB | 0.089 | 0.0427 | 0.37 | 0.00513 | 0.0914
ITGAD | 0.167 | 0.549 | 0.468 | 0.0544 | 0.183
SLC30A4 | 0.0692 | 0.146 | 0.308 | 0.0345 | 0.0901
SERPINC1 | 0.0901 | 0.208 | 0.274 | 0.00571 | 0.223
OSER1 | 0.157 | 0.195 | 0.422 | 0.0262 | 0.259
LMTK2 | 0.0942 | 0.0463 | 0.423 | 0.00553 | 0.191
CDT1 | 0.148 | 0.546 | 0.562 | 0.046 | 0.166
CAVIN3 | 0.0744 | 0.0758 | 0.242 | 0.0262 | 0.2
QRSL1 | 0.142 | 0.208 | 0.259 | 0.0292 | 0.197
TGM3 | 0.12 | 0.252 | 0.384 | 0.04 | 0.243
CD3E | 0.164 | 0.238 | 0.298 | 0.0156 | 0.34
CD3E | 0.249 | 0.212 | 0.299 | 0.0623 | 0.268
RPGRIP1 | 0.215 | 0.653 | 0.283 | 0.0351 | 0.267
AMHR2 | 0.108 | 0.127 | 0.269 | 0.0153 | 0.256
LINC01558 | 0.128 | 0.499 | 0.483 | 0.0273 | 0.146
KIF3C | 0.235 | 0.148 | 0.43 | 0.109 | 0.364
AZIN1 | 0.0759 | 0.113 | 0.251 | 0.0107 | 0.162
YTHDC2 | 0.14 | 0.156 | 0.174 | 0.0409 | 0.232
NR5A1 | 0.0625 | 0.211 | 0.318 | 0.0172 | 0.0873
SIGLEC7 | 0.109 | 0.095 | 0.336 | 0.0297 | 0.139
ARL17A | 0.0996 | 0.168 | 0.474 | 0.107 | 0.204
C19orf33 | 0.0879 | 0.139 | 0.305 | 0.0158 | 0.129
TMEM117 | 0.309 | 0.25 | 0.611 | 0.0687 | 0.462
FAM20B | 0.126 | 0.248 | 0.267 | 0.0362 | 0.408
